Five substances from article PMC11302733 (Microbiology Spectrum, 2024) can be followed below.

A short description of the data set: general procedure: Fmoc solid-phase peptide synthesis; rink amide 4-methylbenzhydrylamine resin (0.59 meq/g). The note with it: whole synthesis, RP-HPLC, Jupiter C18, 214 and 280 nm.
Regarding ASWKVFLKNIGKAAGKAVLNSVTDMVNQ-NH2, the “crude HPLC purity” value is 33%.
On to GFLDIVKGVGKVALGAVSKLF-NH2, for which the “crude HPLC purity” value came out at 56%.
As for GFLDTLKNIGKTVGRIALNVLT-NH2, the “crude HPLC purity” value is listed as 42%.
Regarding GFLDVIKHVGKAALSVVSHLINE-NH2, the “crude HPLC purity” value is 41%.
Next, GFLDVLKGVGKAALGAVTHLINQ-NH2: 85%.
